The values below come from the supplement of paper PMC12823440, “Inhibitors supercharge kinase turnover through native proteolytic circuits” (Nature, 2025).

By UniProt entry, the sequences of proteins in these tests, tags left out. Where a name states a change or a piece, a line headed by the entry shows the natural chain unless it says otherwise.
UniProt Q9Y616: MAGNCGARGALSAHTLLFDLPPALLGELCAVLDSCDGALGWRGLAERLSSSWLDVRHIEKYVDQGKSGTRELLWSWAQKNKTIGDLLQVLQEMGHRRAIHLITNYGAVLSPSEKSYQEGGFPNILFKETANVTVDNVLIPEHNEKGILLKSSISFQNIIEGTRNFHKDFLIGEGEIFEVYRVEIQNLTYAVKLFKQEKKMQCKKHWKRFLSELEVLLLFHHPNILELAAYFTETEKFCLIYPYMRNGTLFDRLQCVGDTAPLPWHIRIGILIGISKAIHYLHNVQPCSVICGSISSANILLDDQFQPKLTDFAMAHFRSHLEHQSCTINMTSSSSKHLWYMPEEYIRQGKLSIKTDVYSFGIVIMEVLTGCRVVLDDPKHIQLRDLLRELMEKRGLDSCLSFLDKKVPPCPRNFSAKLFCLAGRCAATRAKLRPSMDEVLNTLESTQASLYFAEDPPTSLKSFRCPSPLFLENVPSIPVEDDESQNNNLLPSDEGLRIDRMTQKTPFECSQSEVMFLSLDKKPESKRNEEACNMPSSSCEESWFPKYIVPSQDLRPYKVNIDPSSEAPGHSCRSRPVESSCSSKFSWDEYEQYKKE

Each structure is given as a SMILES string. Where a name gives a salt, the structure may show the parent alone. The list shows a part of the results. The calls rarely recur for the same compound in another form.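 In K562 cells expressing nanoluciferase-fused kinases, luminescence was recorded at 4 h intervals between 2 and 18 h, normalized as percent of control with DMSO at 100% and a positive control at 0%. A significant (2 sigma) signal drop marks a time point as decreased. The authors' rule for a hit is not shown and takes in more than the number of time points.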

This assay addresses IRAK3 (UniProt Q9Y616). Kind of assay: number of time points (of 5) at which kinase-Nluc abundance scored as decreased, DMSO-normalised (count); higher = more persistent destabilization. Particulars: K562; 2-18 h.
With `CC(C)c1ccc(CC(=O)N2CCN(c3ccc(C#N)nn3)CC2)cc1` (10 µM), the “number of time points” value is 0. With `C=CC(=O)N1CCC[C@@H](n2nc(C(=O)Nc3ccc(CC(=O)N(C)C)c(C)c3C)c3c(N)ncnc32)C1` (10 µM), the “number of time points” value came to 0. The same measure for `O=C(O)CCc1ccc(NCc2cccc(Oc3ccccc3)c2)cc1` (10 µM): 0. The same measure for `CCc1c(C)sc(NC(=S)NC(=O)c2ccc(Cl)cc2)c1C(N)=O` (10 µM): 0; for `C=CC(=O)Nc1cccc(-n2c(=O)cc(C)c3cnc(Nc4ccc(OCCN(C)C)cc4OC)nc32)c1` (10 µM): 0. The same measure for `C=C(F)C(=O)N1CCN(c2nc(OC[C@@H]3CCCN3C)nc3c2CCN(c2cccc4cccc(Cl)c24)C3)C[C@@H]1CC#N` (2.5 µM): 0; for `COc1ncc(Nc2ncc([C@@H](C)N3CCN(S(C)(=O)=O)CC3)cc2-c2nc(C)nc(N)n2)cc1F` (10 µM): 0. As for `COc1ccc2c(c1OC)OC1c3ccc(O)cc3OCC21` (stereo not drawn) [Methylnissolin] (10 µM), the “number of time points” value is 0. With `O=C(CO)N1CCC(c2n[nH]c(-c3ccc(Cl)cc3)c2-c2ccncn2)CC1` (10 µM), the “number of time points” value amounted to 0. The value for `O=C1NC(=O)/C(=C/c2ccc(-c3ccc(F)cc3O)o2)S1` (10 µM) was 0. The value for `Cc1cc(C(C)Nc2ccccc2)c2nc(N3CCOCC3)cc(=O)n2c1` (stereo not drawn) (10 µM) was 0; that for `Cc1cccc(-c2[nH]ncc2-c2ccc3ncccc3n2)n1` (10 µM) was 0. Regarding `Cc1cc2ncc(-c3ccccc3)nc2cc1C` (10 µM), the “number of time points” value turned out to be 0. Regarding `COc1cc(C(=O)N2CCC(N3CCN(C)CC3)CC2)ccc1Nc1ncc2c(n1)N(C)c1ccccc1C(=O)N2C` (10 µM), the “number of time points” value was 0. The same measure for `COc1cnccc1Nc1nc(-c2nn(Cc3c(F)cc(OCCO)cc3F)c3ccccc23)ncc1OC` (10 µM): 0; for `C[C@@H]1COCCN1c1cc(C2([S@](C)(=N)=O)CC2)nc(-c2cc[nH]c3nccc2-3)n1` [Ceralasertib] (2.5 µM): 0; for `CC(C)C[C@H](NC(=O)[C@H](CCCCN)NC(=O)[C@H](CO)NC(=O)[C@@H](N)CC(C)C)C(N)=O` [LSKL, Inhibitor of Thrombospondin (TSP-1) (TFA)] (10 µM): 0. For `Cn1cc(-c2cc3c(N4CCN(c5ncc([C@@](C)(N)c6ccc(F)cc6)cn5)CC4)ncnn3c2)cn1` [Avapritinib] (2.5 µM), the “number of time points” value was 0. The same measure for `CC(C)(C)C(=O)N1N=CC[C@H]1c1ccccc1` (10 µM): 0.

Regarding `N#Cc1ccc(-c2c(-c3ncn[nH]3)sc(N3CCOCC3)c2C#N)c(F)c1` (10 µM), the “number of time points” value came out at 0. The value for `O=[N+]([O-])c1ccc(Sc2cccc[n+]2[O-])c2nonc12` (2.5 µM) was 0. The value for `Nc1nc2cc(-c3ccc4ncc(C(=O)N5CCOCC5)n4c3)ccc2o1` [Serabelisib] (10 µM) was 0. Turning to `NCCCCCCNS(=O)(=O)c1cccc2c(Cl)cccc12` [W-7 (hydrochloride)] (10 µM), the “number of time points” value is 0. The value for `COc1ccc(CCNc2ncc3c(=O)n(-c4cccc(F)c4)c(=O)[nH]c3n2)cc1OC` (2 µM) was 0; that for `CCc1ccc(C(=O)COc2ccc(CC3SC(=O)NC3=O)cc2)nc1` (stereo not drawn) (10 µM) was 0; that for `Nc1cc(C(F)F)c(-c2nc(N3C4CCC3COC4)nc(N3C4CCC3COC4)n2)cn1` (2.5 µM) was 0. The same measure for `CC(C)(C)c1cc(C(c2cc3c(cc2O)OCO3)N2CCOCC2)cc(C(C)(C)C)c1O` (stereo not drawn) (2.5 µM): 0. The same measure for `N#C/C(=C(/N)Sc1ccc(N)cc1)c1ccccc1C(F)(F)F` (10 µM): 0; for `CC(C)c1cnn2c(NCc3ccccc3-n3cccn3)nc(OC3CCCNC3)nc12` (stereo not drawn) (2.5 µM): 0; for `COc1cc(C(C)=O)cc(OC)c1O` [Acetosyringone] (10 µM): 0.

Turning to `O=S(=O)(c1cccc2cnccc12)N1CCNCC1` (10 µM), the “number of time points” value is 0. The value for `CN1C(=O)NC(Cc2c[nH]c3c(Cl)cccc23)C1=O` (racemic) [Necrostatin 2 (racemate)] (10 µM) was 0; that for `COc1ccc2c(c1)c(C1=C(c3c[nH]c4ccccc34)C(=O)NC1=O)cn2CCCN(C)C` (10 µM) was 0; that for `COc1cc(-c2cc(-c3cc(OC)c(OC)c(OC)c3)cc(C(F)P(=O)(OCOC(=O)C(C)(C)C)OCOC(=O)C(C)(C)C)c2)cc(OC)c1OC` (stereo not drawn) [Stafia-1-dipivaloyloxymethyl ester] (2.5 µM) was 0. The value for `Fc1c(Br)cccc1Nc1ncnc2cc3c(cc12)OCCO3` (2.5 µM) was 0; that for `CN(C)c1ncnc2nc[nH]c12` [6-(Dimethylamino)purine] (10 µM) was 0; that for `CN(C)Cc1cccc(N=C(c2ccccc2)c2c(O)[nH]c3cc(C(=O)N(C)C)ccc23)c1` (10 µM) was 0.

For the compound `Cn1cc(-c2ccc3nnc(C(F)(F)c4ccc5ncccc5c4)n3n2)cn1` (10 µM), the “number of time points” value turned out to be 0.
